Results published in PMC3031242, “A novel neuron-enriched protein SDIM1 is down regulated in Alzheimer's brains and attenuates cell death induced by DNAJB4 over-expression in neuro-progenitor cells” (Molecular Neurodegeneration, 2011).
Results are given in words; binding and its absence hold for the method and conditions named. For part of these data: Binding seen in cells or lysates may run through a third protein. Some entries that bind do so weakly or less than the wild type. Tags and fused reporters may be left off the sequences shown.

By UniProt entry, the sequences of proteins in these tests, tags left out.
UniProt Q9UDY4: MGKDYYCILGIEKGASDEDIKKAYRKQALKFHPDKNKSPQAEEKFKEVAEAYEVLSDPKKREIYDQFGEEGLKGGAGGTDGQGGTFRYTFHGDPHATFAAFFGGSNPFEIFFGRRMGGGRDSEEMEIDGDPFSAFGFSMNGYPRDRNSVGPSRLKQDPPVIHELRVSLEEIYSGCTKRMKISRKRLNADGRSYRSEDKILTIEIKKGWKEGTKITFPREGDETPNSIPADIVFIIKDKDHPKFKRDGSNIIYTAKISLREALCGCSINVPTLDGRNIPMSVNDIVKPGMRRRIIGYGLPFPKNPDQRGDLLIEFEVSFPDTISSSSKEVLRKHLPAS

How the values were obtained:
[1] = target: T1, GST-SDIM1 fusion protein (human) (UniProt Q6ZPB5); experiment: co-IP; purified GST-SDIM1 mixed with cellular proteins from HEK-293 cells transfected with pEGFP-N1 or pSDIM1-EGFP; immunoprecipitated with anti-GST antibody; Western blot with anti-GST, anti-EGFP and anti-SDIM1; only the target purified
T1 sequence: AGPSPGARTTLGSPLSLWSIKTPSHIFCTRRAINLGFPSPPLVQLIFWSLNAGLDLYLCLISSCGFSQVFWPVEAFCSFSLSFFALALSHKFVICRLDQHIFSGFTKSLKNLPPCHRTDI

[2] = target: SDIM1-EGFP (EGFP-tagged SDIM1, from pSDIM1-EGFP) (human) (UniProt Q6ZPB5); experiment: dimer-sized band on SDS-PAGE and Western blot; total cellular proteins from pSDIM1-EGFP transfected HEK-293 cells, anti-EGFP blot (Figure 3D middle panel, lane 2)
[3] = target: flag-tagged DNAJB4 (pCMV-DNAJB4-Tag1) (human) (UniProt Q9UDY4); experiment: co-IP; HEK-293 cells co-transfected with flag-tagged DNAJB4 and EGFP-tagged SDIM1; total cellular proteins immunoprecipitated with anti-flag antibody; Western blot with anti-flag, anti-SDIM1 or anti-EGFP

Measured: binding

B1: SDIM1-EGFP (EGFP-tagged SDIM1, from pSDIM1-EGFP) (protein, UniProt Q6ZPB5 27-146)
chain: CGPSPGARTTLGSPLSLWSIKTPSHIFCTRRAINLGFPSPPLVQLIFWSLNAGLDLYLCLISSCGFSQVFWPVEAFCSFSLSFFALALSHKFVICRLDQHIFSGFTKSLKNLPPCHRTDI
binds: all assays above
